The exact form of at least one protein or probe is not confirmed.
Test system: GST-ZmHDZ4 (Zea mays)
Assay: EMSA
Conditions: 5 mM Mg2+, poly(dI-dC); EMSA: 20 ul with 20 ng protein, 5 ng DIG probe, 10 mM Tris pH 7.5, 50 mM KCl, 1 mM DTT, 5 mM MgCl2, 2.5% glycerol, 0.05% NP-40, 50 ng/ul poly(dI-dC); 20 min, 25 C; recombinant protein; protein details: N-terminal GST (pGEX-4T-1); label: DIG

| Sequence | binding result |
| --- | --- |
| AGCAGCGTTGCAATAATCATTCTGGGCACCTTGACC (double strand) [Motif1 probe (AATCAT)] | binds |
| AGCAGCGTTGCAATCGCATTATCTGGGCACCTTGACC (double strand) [Motif2 probe (CG.AT.AT)] | binds |

Source: paper PMC11656746
